# From PubChem BioAssay AID1671190 (National Center for Advancing Translational Sciences (NCATS), 2021)
# The chains behind the UniProt entries cited, without tags or fusion partners. Where a name states a change or a piece, a line headed by the entry shows the natural chain unless it says otherwise.
# UniProt P18054: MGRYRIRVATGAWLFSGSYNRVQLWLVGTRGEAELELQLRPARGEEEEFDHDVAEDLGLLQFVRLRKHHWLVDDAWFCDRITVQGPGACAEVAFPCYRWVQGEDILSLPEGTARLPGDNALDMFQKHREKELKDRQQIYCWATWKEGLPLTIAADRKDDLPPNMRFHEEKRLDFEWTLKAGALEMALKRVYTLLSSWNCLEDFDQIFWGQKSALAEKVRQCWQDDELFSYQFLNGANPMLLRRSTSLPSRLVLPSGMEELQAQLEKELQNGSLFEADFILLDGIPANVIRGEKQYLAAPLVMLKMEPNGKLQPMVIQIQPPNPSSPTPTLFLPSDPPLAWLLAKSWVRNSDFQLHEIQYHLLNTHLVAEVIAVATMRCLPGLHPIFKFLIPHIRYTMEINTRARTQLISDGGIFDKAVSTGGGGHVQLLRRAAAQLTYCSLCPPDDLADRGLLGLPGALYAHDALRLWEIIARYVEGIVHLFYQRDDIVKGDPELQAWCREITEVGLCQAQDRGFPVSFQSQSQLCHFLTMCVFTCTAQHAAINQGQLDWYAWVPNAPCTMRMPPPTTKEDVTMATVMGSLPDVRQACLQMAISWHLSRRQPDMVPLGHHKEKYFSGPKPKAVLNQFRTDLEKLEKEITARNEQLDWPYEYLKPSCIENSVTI
# Where “and” joins values, the source holds several entries; their conditions need not be identical. Identical values can stand only once. Screen size: about 580,000 compounds; about 6,100 (1.1%) were called active. Inconclusive means that the source gave no clear call. Such entries were picked first, then a sample of the others. Calls come from the whole dose curve; as a rule, active = well fitted inhibition curve with a large enough effect; inconclusive = small, poorly fitted or top-dose-only effect, or another doubt; inactive = no such curve, though single readings can be large or run the other way. Potencies of inconclusive entries are doubtful fits and often do not repeat.
# Target: Polyunsaturated fatty acid lipoxygenase ALOX12 (Homo sapiens) (UniProt P18054)
# Experiment: Primary qHTS assay for inhibitors of human arachidonate 12S-lipoxygenase (ALOX12): Round 2
# Settings: purified 12hLO, xylenol orange hydroperoxide absorbance; activity change, negative = inhibition: at 108 µM (top of the series) unless noted
# Outline: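 Hydroperoxide product was detected by ferrous iron/xylenol orange as the 573 to 405 nm absorbance ratio. Arachidonic acid at 40 uM (final) was turned over for 30 min at room temperature by 150 nM human 12hLO, pH 7.0 Hepes buffer, after 15 min compound preincubation.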
# % is set by controls: 0 for no effect and ±100 for the full control effect; potency is the fitted concentration of half-maximal effect.
SMILES,Potency,"activity change, negative = inhibition"
Cc1ccc(-c2csc(C(C)(O)c3cccc(F)c3)n2)cc1C (stereo not given),"inconclusive: 79.4 µM [inhibitor, single point]",–
CCc1ccc(S(=O)(=O)N2CCC(n3cnnc3CCOC)CC2)cc1,–,inactive: 3.17%
O=C(c1ccc2c(c1)OCO2)N1C[C@@H]2C[C@H](C1)c1ccc(-c3cccc(C(F)(F)F)c3)c(=O)n1C2,"inconclusive: 17.8 µM [inhibitor, partial curve, poor fit]",–
COc1ccc(NC(=O)c2cc(-c3ccccc3O)on2)cc1OC,active: 0.631 µM,–
Oc1ccc(-c2nccc(-c3ccc(Cl)cc3Cl)n2)cc1,"inconclusive: 56.2 µM [inhibitor, partial curve, poor fit]",–
O=c1ccc(N2CCCN(S(=O)(=O)c3cccc4nsnc34)CC2)nn1-c1ccccc1,–,inconclusive: -33.8% [inhibitor]
CCCC1(CO)CCCN(Cc2cc(-c3ccc(C)cc3)no2)C1 (stereo not given),"inconclusive: 35.5 µM [inhibitor, partial curve]",–
COc1ccc(OCc2nc(C(=O)N3CCC4(CCCN(C)C4=O)C3)co2)cc1 (stereo not given),–,inactive: 17.2%
C/C=C\C(=O)Nc1cccc(C2=NOC3(C2)C[C@H](C(N)=O)N(C(=O)/C=C/CC)C3)c1 (stereo not given in full),"inconclusive: 0.708 µM [inhibitor, full curve, poor fit]",–
CCOc1ccc(N(CC)C(=O)c2cc3c(s2)-c2ccccc2OC3)cc1,–,inactive: -9.97%
O=C(NCCc1cccs1)C1CC(c2ccccc2F)=NO1 (stereo not given),–,inactive: -11.6%
NC(=O)CNS(=O)(=O)c1cccc(C(=O)O)c1,"inconclusive: 44.7 µM [inhibitor, full curve, poor fit]",–
Cc1ccc(SCCNC(=S)Nc2ccc(C)cc2C)cc1,"inconclusive: 44.7 µM [inhibitor, partial curve, poor fit]",–
COc1cc2c(cc1OC)C(c1cc3ccc(C)cc3[nH]c1=O)N(C(=O)c1ccco1)CC2 (stereo not given),"inconclusive: 89.1 µM [inhibitor, partial curve, poor fit]",–
Cc1ccc(S(=O)(=O)c2c(N)n(NC(=O)c3ccco3)c3nc4ccccc4nc23)cc1,"inconclusive: 56.2 µM [inhibitor, partial curve, poor fit]",–
CNc1c(NS(=O)(=O)c2ccc(F)c(C)c2)c(=O)oc2ccccc12,"inconclusive: 44.7 µM [inhibitor, partial curve, poor fit]",–
NC(Cc1ccc(Cl)cc1)c1csc(Nc2ccc(C(=O)c3ccccc3)cc2)n1 (stereo not given),"inconclusive: 50.1 µM [inhibitor, partial curve, poor fit]",–
O=c1cnn(-c2ccc(Cl)cc2Cl)c(-c2ccccc2)c1,"inconclusive: 70.8 µM [inhibitor, partial curve, poor fit]",–
COc1ccccc1NC(=O)Cn1cc(C(=O)c2ccco2)c2ccccc21,–,inactive: 0%
Cc1cn2nc(C(=O)NCc3ccc(F)cc3)cc2c(N(C)Cc2ccccc2)n1,–,inactive: 19.7%
CCC(=O)Oc1ccc2c(=O)c(Oc3cc(C)cc(C)c3)coc2c1,–,inactive: -14.6%
Cc1ccc(-c2nc3sccn3c2Nc2ccc(C)c(C)c2)cc1,"inconclusive: 56.2 µM [inhibitor, partial curve]",–

SMILES,Potency,"activity change, negative = inhibition"
CC1(C)CC2(CC(c3cccs3)c3cc(Cl)c(O)cc3O2)NC(=S)N1 (stereo not given),"inconclusive: 35.5 µM [inhibitor, partial curve, poor fit]",–
CC1=C(C(=O)Nc2ccccc2)C(c2cccc(Cl)c2Cl)NC(=S)N1 (stereo not given),"inconclusive: 7.94 µM [inhibitor, full curve, poor fit]",–
C/C(=N\NC(=S)NCc1ccccc1)c1ccc(Cl)cc1,active: 31.6 µM,–
COc1cccc(-c2nn(-c3ccccc3)cc2C(=O)NCC(=O)O)c1,"inconclusive: 3.98 µM [inhibitor, full curve, poor fit]",–
COc1cccc(CNc2nc3cc(-c4cccc(C(=O)NCCO)c4)sc3c(=O)n2C)c1,"inconclusive: 44.7 µM [inhibitor, partial curve, poor fit]",–
O=C([C@@H]1C[C@H](F)CN1S(=O)(=O)c1ccc(F)cc1)N1CCc2ccccc2C1,–,inactive: -4.05%
CCN(CC)S(=O)(=O)c1ccc(NC(=O)CNC2CCCCC2)cc1,"inconclusive: 3.55 µM [inhibitor, full curve, poor fit]",–
Cc1cccc(NC(=O)C(=O)NCCc2csc(-c3ccc(F)cc3)n2)c1C,"inconclusive: 56.2 µM [inhibitor, partial curve, poor fit]",–
CCN(C(=O)c1cn(CC)c(=O)c2cc(OC)c(OC)cc12)c1ccccc1F,–,inactive: -8.1%
COc1ccc(NC(=O)c2ccccc2SCc2ccccc2)cc1,"inconclusive: 0.891 µM [inhibitor, full curve, poor fit]",–
O=C(CCc1c[nH]c2ccccc12)N1CCC(C(=O)N2CCCCCC2)CC1,–,inactive: 12.5%
Cc1ccc(N(CC(=O)N2CCN(C(c3ccccc3)c3ccccc3)CC2)S(C)(=O)=O)cc1,"inconclusive: 39.8 µM [inhibitor, partial curve, poor fit]",–
COCCCn1c(-c2ccc(Cl)cc2)n[nH]c1=S,"inconclusive: 70.8 µM [inhibitor, partial curve, poor fit] and inconclusive: 39.8 µM [inhibitor, partial curve, poor fit]",–
Cc1ccc(S(=O)(=O)NCC(=O)N/N=C/c2ccc(Cl)cc2)cc1,"inconclusive: 70.8 µM [inhibitor, partial curve, poor fit]",–
O=C(CCN1C(=O)c2ccccc2C1=O)NCc1ccc(F)cc1,–,inactive: -10.3%
O=c1ccc(-c2ccc(Cl)cc2)nn1CCNS(=O)(=O)c1ccc(C(F)(F)F)cc1,"inconclusive: 39.8 µM [inhibitor, partial curve, poor fit]",–
Cc1ccc(S(=O)(=O)N2[C@@H](c3ccc(Cl)cc3)C(C(=O)O)=CC[C@H]2c2ccc(Cl)c(Cl)c2)cc1,"inconclusive: 50.1 µM [inhibitor, partial curve, poor fit]",–
Cc1ccc(/C=N/Nc2nc(Nc3ccccc3)nc(N3CCCCC3)n2)c(C)c1,–,inactive: -4.1%
COc1ccccc1NC(=S)NC(=O)c1ccc(Cn2cc(Br)cn2)cc1,"inconclusive: 20 µM [inhibitor, partial curve, poor fit]",–
COCC1CN(Cc2cccc3[nH]ccc23)CC12CCNCC2 (stereo not given),"inconclusive: 25.1 µM [inhibitor, full curve]",–
C1CCN(CC2CCCN2)CC1 (stereo not given),"inconclusive: 7.08 µM [inhibitor, full curve, poor fit]",–
COc1ccc(NC(=O)CN2C(=O)c3cccnc3Sc3ccccc32)cc1OC,–,inactive: -24.8%

SMILES,Potency,"activity change, negative = inhibition"
CN(C)C(=O)c1ccc(NC(=O)CCc2ccco2)cc1,"inconclusive: 35.5 µM [inhibitor, partial curve]",–
CC12CC3CC(C)(C1)CC(C(=O)NCc1ccco1)(C3)C2,–,inactive: -48.7%
COc1ccc(-c2nn3c(c2C)NC(=O)CC3C(=O)Nc2ccc(C)cc2)cc1 (stereo not given),–,inactive: -12.6%
CCCNC(=O)NC(=O)CN(Cc1ccc(C(F)(F)F)cc1)C1CC1,"inconclusive: 126 µM [inhibitor, single point]",–
Nc1nonc1-c1nc2ccccc2n1CC(=O)Nc1ccc(F)cc1F,–,inactive: -7.91%
CCOC(=O)c1c(NC(=O)C2C3CCC(O3)C2C(=O)O)sc2c1CCC(CC)C2 (stereo not given),"inconclusive: 5.01 µM [inhibitor, full curve, poor fit]",–
CCN1C(=O)[C@@H]2[C@@H](c3ccc(-c4ccc5c(c4)OCO5)c(OC)c3)N3CCC[C@@]3(C(=O)OC)[C@@H]2C1=O,active: 11.2 µM,–
COc1ccc2c(CNCCc3cccs3)c(C(=O)O)n(Cc3ccc(F)cc3Cl)c2c1,–,inactive: -20.6%
CC1CCN(C(=S)c2ccccc2O)CC1,"inconclusive: 50.1 µM [inhibitor, partial curve, poor fit]",–
CN1CCN(c2ncc3nc(CCc4ccccc4)c(=O)n(C)c3n2)CC1,"inconclusive: 50.1 µM [inhibitor, partial curve, poor fit]",–
O=C(/C=C\NCC(=O)c1ccccc1)c1ccc(F)cc1,–,inactive: -20%
CCNc1ncc2nc(-c3ccc(Cl)cc3)c(=O)n(CCC#N)c2n1,"inconclusive: 35.5 µM [inhibitor, single point]",–
Cc1ccc(S(=O)(=O)N2CCCC2CNC(=O)C(=O)NCc2cccs2)cc1 (stereo not given),"inconclusive: 79.4 µM [inhibitor, single point]",–
Cc1cc(Nc2ccc(F)c(Cl)c2)n2nc(C)nc2n1,"inconclusive: 20 µM [inhibitor, partial curve, poor fit]",–
CN(C)c1ccc(NC(=O)Nc2ccc3c(c2)nnn3C)cc1,–,inactive: -6.52%
CCOc1ccc(CN(CCc2ccc3c(c2)OCO3)Cc2cc(OC)c(OC)cc2OC)cc1,"inconclusive: 5.01 µM [inhibitor, full curve, poor fit]",–
CCc1ccccc1NC(=O)c1nn(Cc2ccccc2)c(=O)c2ccccc12,–,inactive: 9.79%
N#C/C(=C/c1ccc(O)c(Br)c1)C(=O)Nc1ccccc1C(F)(F)F,"inconclusive: 44.7 µM [inhibitor, partial curve, poor fit]",–
COc1ccc(NC(=O)CN2CCN(S(=O)(=O)c3ccc(Cl)cc3)CC2)cc1,"inconclusive: 50.1 µM [inhibitor, partial curve, poor fit]",–
O=C(/C=C/c1ccccc1)N(Cc1cccs1)C1CCS(=O)(=O)C1 (stereo not given),"inconclusive: 5.01 µM [inhibitor, full curve, poor fit]",–
Cn1nccc1-c1coc2c(C(=O)N3CCOCC3)cccc12,"inconclusive: 112 µM [inhibitor, single point]",–
